Record: PubChem BioAssay AID504808 (Drosophila RNAi Screening Center, 2011)

Purpose: 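Fly genes required to hold E2F transcription in check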 (primary screen)
Cells: Drosophila S2 cells
Reagent: long dsRNA against Drosophila genes
Measured: 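Dual luciferase plate measurements; E2F-specific signal taken as firefly over Renilla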
Direction: E2F firefly: higher = more E2F reporter activity; Renilla normaliser: higher = more normaliser reporter signal
Hit rule: 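Called active if the normalised E2F reporter went up by over 50%; the cutoff is arbitrary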
In all, the deposit lists about 21,000 reagents; this is a random part of those that have a named target and a result. Of all reagents, 18 (0.084%) were called active. 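Raw counts without plate normalisation, one of two replicates; the ratio scores behind the calls were not deposited.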 Reagents against one gene are numbered here. A plus sign joins genes that one reagent is predicted to hit. The record does not give: the amount of reagent, the time to read-out.

predicted target | dsRNA no. | E2F firefly, rep 1 | Renilla normaliser, rep 1 | outcome
Ir56d | 1 | 1.27e5 | 4445 | inactive
ksh | 1 | 1.27e5 | 6606 | inactive
kat80 | 1 | 2.05e5 | 5777 | inactive
kat80 | 2 | 2.43e5 | 5892 | inactive
bonsai | 1 | 1.04e5 | 4758 | inactive
PRL-1 | 1 | 97581 | 4197 | inactive
ec | 1 | 81720 | 2971 | inactive
ec | 2 | 88516 | 3283 | inactive
ec | 3 | 99668 | 5096 | inactive
CG15914 | 1 | 2.41e5 | 7659 | inactive
Mipp2 | 1 | 8189 | 704 | inactive
Cpsf100 | 1 | 2034 | 1048 | inactive
CG5446 | 1 | 96665 | 4527 | inactive
CG11825 | 1 | 1.51e5 | 5044 | inactive
Cpr57A + Obp57d | 1 | 83170 | 3428 | inactive
Tpc2 | 1 | 1.04e5 | 4144 | inactive
ppk3 | 1 | 1.05e5 | 4153 | inactive
CG3457 | 1 | 2022 | 1016 | inactive
Tlk | 1 | 1.00e5 | 7552 | inactive
Tlk | 2 | 60431 | 4115 | inactive
l(2)34Fc | 1 | 1.10e5 | 4479 | inactive
hfw | 1 | 1.30e5 | 5578 | inactive
CG12811 | 1 | 1.42e5 | 6354 | inactive
Nup160 + RfC38 | 1 | 71832 | 3495 | inactive
Lint-O | 1 | 1.53e5 | 5702 | inactive
hzg | 1 | 1.24e5 | 5696 | inactive
CG5435 | 1 | 99928 | 4293 | inactive
mst | 1 | 1.44e5 | 6654 | inactive
Elba2 | 1 | 90235 | 3821 | inactive
Naus | 1 | 64850 | 3453 | inactive
Naus | 2 | 1.41e5 | 4743 | inactive
CG14669 | 1 | 64733 | 3759 | inactive
CG14669 | 2 | 80659 | 3733 | inactive
CG14669 | 3 | 94446 | 4172 | inactive
CG14669 | 4 | 1.38e5 | 6949 | inactive
CG9917 | 1 | 7341 | 680 | inactive
tadr | 1 | 83689 | 2950 | inactive
CG2493 | 1 | 90442 | 3798 | inactive
CG31913 | 1 | 1.30e5 | 5517 | inactive
CG5611 | 1 | 1.02e5 | 6316 | inactive
ProtA | 1 | 1.12e5 | 4936 | inactive
CG14540 | 1 | 98380 | 6647 | inactive
Root | 1 | 1.06e5 | 6163 | inactive
CG32563 | 1 | 1.62e5 | 6959 | inactive
Ddrgk1 | 1 | 66783 | 2950 | inactive
Muc4B | 1 | 1.27e5 | 6478 | inactive
Muc4B | 2 | 93512 | 6345 | inactive
Ir84a | 1 | 1.53e5 | 6433 | inactive
Sumo | 1 | 58241 | 3349 | inactive
unc-119 | 1 | 42650 | 3931 | inactive
Grip71 | 1 | 1.01e5 | 3784 | inactive
CG46441 | 1 | 63505 | 3665 | inactive
CG13390 | 1 | 1.47e5 | 5974 | inactive
CG6733 | 1 | 1.07e5 | 5893 | inactive
angel | 1 | 76732 | 3056 | inactive
CG33474 | 1 | 1.14e5 | 4338 | inactive
Npc2d | 1 | 1.29e5 | 5642 | inactive
CG5399 | 1 | 1.30e5 | 6728 | inactive

Next part; the last 10 above are carried over.
predicted target | dsRNA no. | E2F firefly, rep 1 | Renilla normaliser, rep 1 | outcome
Sumo | 1 | 58241 | 3349 | inactive
unc-119 | 1 | 42650 | 3931 | inactive
Grip71 | 1 | 1.01e5 | 3784 | inactive
CG46441 | 1 | 63505 | 3665 | inactive
CG13390 | 1 | 1.47e5 | 5974 | inactive
CG6733 | 1 | 1.07e5 | 5893 | inactive
angel | 1 | 76732 | 3056 | inactive
CG33474 | 1 | 1.14e5 | 4338 | inactive
Npc2d | 1 | 1.29e5 | 5642 | inactive
CG5399 | 1 | 1.30e5 | 6728 | inactive
CkIIalpha-i1 | 1 | 1.87e5 | 7380 | inactive
mre11 | 1 | 92944 | 3602 | inactive
Inx2 | 1 | 8005 | 784 | inactive
Zip71B | 1 | 1.65e5 | 8004 | inactive
CG18268 + CG3014 | 1 | 1.33e5 | 6074 | inactive
Octalpha2R | 1 | 77657 | 2406 | inactive
Octalpha2R | 2 | 1.08e5 | 5857 | inactive
CG42564 | 1 | 1.42e5 | 6710 | inactive
tou | 1 | 3044 | 251 | inactive
Pop4 | 1 | 93830 | 4137 | inactive
Jhbp14 | 1 | 99587 | 4378 | inactive
Tab2 | 1 | 1.44e5 | 4758 | inactive
CG32176 | 1 | 1.63e5 | 7728 | inactive
CG32176 | 2 | 1.81e5 | 8157 | inactive
CG10550 | 1 | 1899 | 1000 | inactive
CG7029 | 1 | 66819 | 4982 | inactive
Nup205 | 1 | 1.39e5 | 5281 | inactive
Rh3 | 1 | 67194 | 2881 | inactive
ssp5 | 1 | 68728 | 3290 | inactive
BG642163 | 1 | 1.62e5 | 5265 | inactive
BG642163 | 2 | 1.47e5 | 4923 | inactive
Noa36 | 1 | 1886 | 876 | inactive
Set1 | 1 | 1.15e5 | 5523 | inactive
Set1 | 2 | 1.20e5 | 4927 | inactive
CG18605 | 1 | 1.46e5 | 4881 | inactive
Nepl16 | 1 | 1.01e5 | 6024 | inactive
CG31792 | 1 | 1.04e5 | 4893 | inactive
Dtwd2 + Obp84a | 1 | 1.40e5 | 7290 | inactive
CG32507 | 1 | 78304 | 2457 | inactive
dar1 | 1 | 1.21e5 | 4445 | inactive
dar1 | 2 | 93658 | 4223 | inactive
Ufsp2 | 1 | 69923 | 3868 | inactive
Fbp1 | 1 | 1.84e5 | 6582 | inactive
CG4914 | 1 | 1.82e5 | 8266 | inactive
Oamb | 1 | 96406 | 2731 | inactive
Oamb | 2 | 1.25e5 | 6949 | inactive
Oamb | 3 | 1.38e5 | 6881 | inactive
t-Grip84 | 1 | 1.12e5 | 3919 | inactive
CG9008 | 1 | 85049 | 3606 | inactive
Gycbeta100B | 1 | 71407 | 2730 | inactive
Gycbeta100B | 2 | 87676 | 2483 | inactive
Gycbeta100B | 3 | 2096 | 940 | inactive
Rpn5 | 1 | 58364 | 3857 | inactive
Calr | 1 | 1.40e5 | 7860 | inactive
Pi3K21B | 1 | 88342 | 3952 | inactive
CG17839 | 1 | 1.65e5 | 7565 | inactive
CG17839 | 2 | 1.92e5 | 9446 | inactive
S6k | 1 | 93540 | 3746 | inactive
Rpn9 | 1 | 66845 | 3518 | inactive
